# Patent US20200237863A1, “Combination Therapy of Fractionated Radiation and SAPC-DOPS for the Treatment of Tumors” (University of Cincinnati, priority 2017, published 2020)
# At least one structure is not confirmed: it was looked up by name or label, or the drawing left a doubt.
# Tested on: A2058, cfPac-1 and U87MG cell lines
# Assay: Cell viability (MTT) assay of serially irradiated cells treated with chemotherapeutic drugs
# Type: cell-based, human
# Details: 5 Gy weekly for multiple weeks, drug 7 days after last irradiation, MTT 72 hr later
# Protocol: Non serially-irradiated cells are designated R0. Media was changed immediately after the irradiation and the cells were split every 3-4 days. Treatments were given 4-7 days following the last 5 Gy irradiation, when the surface PS is still elevated. A) Timeline of the treatment regime. B) Surface PS was determined by Annexin V-FITC staining on Day 4 following the last 5 Gy irradiation. Rx; x=15 for A2058 and 10 for cfPac-1 and U87MG. * p<0.05, ** p<0.01 compared to R0. Shown are the mean and S.D. C-E) Cells were serially irradiated with 5 Gy. (top panel, A2058 cells; middle panel, cfPac-1 cells; bottom panel, U87MG cells) C) 7 days later they were exposed to the indicated doses of radiation and cell viability was determined by MTT assay was performed 72 hr. later. Shown is the % of live cells with 100% as the normalized control for each cell line, * p<0.05. ** p<0.01, compared to R0. D) 7 days after the last 5 Gy irradiation, cells were treated with different doses of gemcitabine (GEM) temozolomide (TMZ) or cisplatin and cell viability was determined by MTT assay was performed 72 hr. later. * p<0.05, ** p<0.01, compared to R0 at the same dose of drug. E.) 7 days following the last 5 Gy irradiation, cells were treated with the indicated doses of SapC-DOPS (1 SapC:7 DOPS, Mol:Mol) and cell viability was determined by MTT assay was performed 72 hr. later. […]
structure (smiles),measurement,value
Cn1nnc2c(C(N)=O)ncn2c1=O [temozolomide],sensitivity of serially irradiated cells to chemotherapeutic drugs (MTT cell viability) compared to R0,more resistant
